According to paper PMC12412656:
No constants are given. Whether binding was seen depends on the method and setting. Binding can be weak; no strength is given.

Biological target: T1, paxillin LD1 (3-23C) synthetic peptide, fluorescein-labelled
T1 sequence (peptide, fluorescein coupled via the terminal (C-terminal, non-native) cysteine): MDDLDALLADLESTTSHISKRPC
Assay: fluorescence polarisation; R7R8 serially diluted (maximum 160 μM) into 0.5 μM fluorescein-labelled peptide; PBS with 1 mM TCEP and 0.02% Tween-20; room temperature; triplicate; one-site total binding model; both purified

For “talin 1 R7R8 domain protein (mouse) (domain or fragment)”, the binding was “binds weakly”.
